Results are given in words; binding and its absence hold for the method and conditions named.

Chains of the proteins cited; added tags and fusions are not shown. Lines headed by an entry give the natural chain unless they say otherwise; changes in a name come on top.
UniProt Q60974: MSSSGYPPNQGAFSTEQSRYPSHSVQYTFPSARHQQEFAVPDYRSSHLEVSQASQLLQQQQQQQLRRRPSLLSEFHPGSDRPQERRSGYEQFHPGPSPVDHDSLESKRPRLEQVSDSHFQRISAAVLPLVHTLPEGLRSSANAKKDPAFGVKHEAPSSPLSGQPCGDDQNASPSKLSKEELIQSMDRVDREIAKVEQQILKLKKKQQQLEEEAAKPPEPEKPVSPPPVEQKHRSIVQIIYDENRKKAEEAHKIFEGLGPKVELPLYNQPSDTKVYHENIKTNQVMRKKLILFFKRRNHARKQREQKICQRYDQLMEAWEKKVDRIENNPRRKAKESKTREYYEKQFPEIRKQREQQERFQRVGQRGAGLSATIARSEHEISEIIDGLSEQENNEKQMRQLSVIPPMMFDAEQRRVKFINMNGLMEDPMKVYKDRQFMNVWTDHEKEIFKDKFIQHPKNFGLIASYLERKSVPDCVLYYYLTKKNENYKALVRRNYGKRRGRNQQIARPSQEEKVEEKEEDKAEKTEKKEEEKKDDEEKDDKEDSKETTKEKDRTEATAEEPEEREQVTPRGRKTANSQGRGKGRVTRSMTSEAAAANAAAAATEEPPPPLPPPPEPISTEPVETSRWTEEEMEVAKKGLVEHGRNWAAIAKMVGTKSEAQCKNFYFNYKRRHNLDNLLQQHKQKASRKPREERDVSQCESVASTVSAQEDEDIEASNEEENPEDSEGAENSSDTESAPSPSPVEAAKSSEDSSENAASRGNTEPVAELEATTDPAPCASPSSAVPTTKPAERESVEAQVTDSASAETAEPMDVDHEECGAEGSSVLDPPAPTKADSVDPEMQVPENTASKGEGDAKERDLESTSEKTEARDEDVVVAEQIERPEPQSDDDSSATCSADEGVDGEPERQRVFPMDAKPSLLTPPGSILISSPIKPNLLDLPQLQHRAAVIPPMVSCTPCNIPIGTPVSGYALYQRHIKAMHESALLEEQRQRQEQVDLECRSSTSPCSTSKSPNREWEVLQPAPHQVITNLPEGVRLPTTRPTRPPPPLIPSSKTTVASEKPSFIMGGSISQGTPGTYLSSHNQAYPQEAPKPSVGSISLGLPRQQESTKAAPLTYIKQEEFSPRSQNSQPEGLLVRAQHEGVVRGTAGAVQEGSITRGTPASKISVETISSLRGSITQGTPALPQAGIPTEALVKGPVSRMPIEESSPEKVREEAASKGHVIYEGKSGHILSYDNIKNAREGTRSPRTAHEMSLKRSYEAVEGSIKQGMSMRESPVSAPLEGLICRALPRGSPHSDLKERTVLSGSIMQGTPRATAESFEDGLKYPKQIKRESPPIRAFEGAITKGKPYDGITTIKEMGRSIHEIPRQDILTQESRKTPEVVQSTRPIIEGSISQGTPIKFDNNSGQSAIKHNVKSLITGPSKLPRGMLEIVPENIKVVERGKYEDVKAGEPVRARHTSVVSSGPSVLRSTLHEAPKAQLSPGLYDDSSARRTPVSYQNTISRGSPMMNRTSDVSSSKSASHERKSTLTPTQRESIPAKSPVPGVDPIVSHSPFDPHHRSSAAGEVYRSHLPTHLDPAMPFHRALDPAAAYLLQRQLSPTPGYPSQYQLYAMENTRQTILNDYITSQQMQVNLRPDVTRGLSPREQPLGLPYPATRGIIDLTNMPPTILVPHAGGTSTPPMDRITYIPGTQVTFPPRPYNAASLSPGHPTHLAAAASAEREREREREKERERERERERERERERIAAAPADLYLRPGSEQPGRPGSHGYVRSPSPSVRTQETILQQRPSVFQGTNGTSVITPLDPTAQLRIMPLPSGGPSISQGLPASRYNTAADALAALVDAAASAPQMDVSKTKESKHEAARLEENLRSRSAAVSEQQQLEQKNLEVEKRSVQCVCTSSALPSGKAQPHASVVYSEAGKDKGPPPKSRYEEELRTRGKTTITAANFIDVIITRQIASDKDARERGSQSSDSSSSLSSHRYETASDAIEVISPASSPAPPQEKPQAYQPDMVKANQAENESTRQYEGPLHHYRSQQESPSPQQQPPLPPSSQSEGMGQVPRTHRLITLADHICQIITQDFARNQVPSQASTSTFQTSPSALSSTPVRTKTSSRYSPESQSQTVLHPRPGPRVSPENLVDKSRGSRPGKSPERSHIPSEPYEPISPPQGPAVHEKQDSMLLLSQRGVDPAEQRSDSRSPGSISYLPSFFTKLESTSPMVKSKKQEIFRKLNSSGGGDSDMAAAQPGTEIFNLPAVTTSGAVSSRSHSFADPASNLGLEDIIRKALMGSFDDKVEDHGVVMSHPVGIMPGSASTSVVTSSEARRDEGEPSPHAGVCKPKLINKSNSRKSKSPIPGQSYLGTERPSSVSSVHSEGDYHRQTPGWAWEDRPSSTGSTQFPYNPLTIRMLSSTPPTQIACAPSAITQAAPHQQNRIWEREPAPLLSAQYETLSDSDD

These results are taken from article PMC5741760.

The assay deals with T1, thyroid hormone receptor α1 (TRα1) (mouse (endogenous in bone marrow)) (UniProt P63058).
T1 sequence: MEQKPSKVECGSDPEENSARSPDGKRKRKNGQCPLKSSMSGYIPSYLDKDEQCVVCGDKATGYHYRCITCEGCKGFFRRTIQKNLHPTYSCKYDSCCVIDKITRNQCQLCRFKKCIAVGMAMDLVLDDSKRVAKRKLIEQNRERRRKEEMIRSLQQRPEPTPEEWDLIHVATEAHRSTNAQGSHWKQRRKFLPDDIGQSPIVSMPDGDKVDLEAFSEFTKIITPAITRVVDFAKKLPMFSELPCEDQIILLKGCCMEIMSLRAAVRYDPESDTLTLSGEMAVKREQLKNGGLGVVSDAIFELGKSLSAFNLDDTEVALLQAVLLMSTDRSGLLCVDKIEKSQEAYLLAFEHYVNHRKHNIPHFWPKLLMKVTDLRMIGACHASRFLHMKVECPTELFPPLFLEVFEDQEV
The assay is described as follows: chromatin immunoprecipitation (ChIP); bone marrow cells of WT and mutant mice fixed in 1% formaldehyde, sheared, immunoprecipitated overnight at 4 °C with anti-NCOR1 (ab24552) or anti-HDAC3 antibody or IgG; qPCR of the TRE2 fragment upstream of Gata1; percentage of the input. On the technique in general: Quantitative PCR measures a nucleic acid by following its amplification.

“NCOR1ΔID (product of the mutant Ncor1 ΔID allele) (from UniProt Q60974)”: the binding result is reported as “no binding”.
